The other results are listed elsewhere or left out. The main result of the screen is listed elsewhere. These columns were measured beside it and carry no call. Most of these compounds were active or inconclusive in the main read-out, so they are no random draw. Potencies come from curve fits of mixed quality, noted in brackets.
Test: qHTS Assay to Find Inhibitors of Chronic Active B-Cell Receptor Signaling
Conditions: ABC-DLBCL IkBa-CBG/CBR reporter, luminescence ratio (green luciferase fused to IkBa over red control in TMD8 lymphoma cells), 4 h
How it was run: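 Cell line TMD8 (human ABC DLBCL), stably expressing tet-inducible CBG68-IkBa fusion and CBR; IMDM/0.5% FBS; cpd up to 46 uM; dox induction, 4 h, 37C/5% CO2; dual luminescence; green/red ratio; MG132 control.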

[1] = measured here: CBR red luminescence, cell number
[2] = measured here: IkBa-CBG green luminescence

Compound	AC50 [1]	AC50 [2]
COc1ccc(-c2csc3ncn(-c4ccc(C)cc4)c(=O)c23)cc1OC	1.12 µM [rising, full curve, poor fit]	
O=C(Nc1ccc(C(F)(F)F)cc1)c1cc(S(=O)(=O)NC2CCCCC2)ccc1F	15.8 µM [falling, single point]	
COc1ccccc1C1C2=C(COC2=O)Nc2cc3c(cc21)OCO3 (configuration not stated)	0.562 µM [rising, full curve, poor fit]	0.562 µM [falling, full curve, poor fit]
CCc1ccc(/C=C/C(=O)C2C(=O)c3ccccc3C2=O)cc1	3.55 µM [falling, full curve]	
Cc1ccc2[nH]cc(S(=O)(=O)c3ccc(F)cc3)c(=O)c2c1	35.5 µM [falling, partial curve, poor fit]	
CN(C)c1ccc(S(=O)(=O)NCC(=O)NCCOc2ccccc2F)cc1[N+](=O)[O-]	4.11 µM [rising, partial curve, poor fit]	
CCCc1cc(C(=O)NCc2ccccc2)no1	20.6 µM [falling, partial curve]	
COc1ccc(-c2cnnn2-c2ccc([N+](=O)[O-])cc2)cc1	3.98 µM [rising, full curve]	
COc1ccc(Br)cc1/C=C/C(=O)Nc1ccc(C)cc1	23.1 µM [falling, single point]	
C=CCNC(=O)C1CC2Cn3c(nc4cc5ccccc5cc43)C2N1C (configuration not stated)	17.8 µM [rising, single point]	
CN1CCN(C(=O)c2ccc3c(c2)N(Cc2cccc(Cl)c2)C(=O)c2ccccc2S3(=O)=O)CC1	15.8 µM [falling, partial curve, poor fit]	
Cn1nccc1C(=O)Nc1ccc(OC(=O)c2ccnn2C)cc1	9.2 µM [rising, partial curve, poor fit]	
Cc1ccc(NC(=O)c2cnccn2)cc1	14.1 µM [falling, single point]	
CCN(CC)c1ccc(/C=C2\CCC(/C=C(\C#N)C(=O)Nc3ccccc3F)=C2N2CCOCC2)cc1	25.9 µM [rising, partial curve, poor fit]	
C=CCNC(=S)N/N=C(\C)c1cc(OC)c(OC)c(OC)c1	29.1 µM [falling, single point]	23.1 µM [falling, single point]
COc1ccc(C(=O)Oc2ccc3c(c2)OCO3)cc1OC	7.08 µM [rising, partial curve, poor fit]	
Clc1ccc(Cn2ncc3c(N4CCCC4)ncnc32)cc1	18.4 µM [falling, partial curve, poor fit]	
Fc1ccc(-[n+]2nc(Nc3ccccc3)sc2-c2c(Cl)cccc2Cl)cc1	12.6 µM [falling, partial curve, poor fit]	
Cc1ccc(C)c(C(=O)Cn2ncc(Cl)c(Cl)c2=O)c1	13 µM [falling, partial curve]	10.3 µM [rising, partial curve, poor fit]
CC(Cc1ccccc1)NC(=O)/C=C/c1ccc([N+](=O)[O-])cc1 (configuration not stated)	7.31 µM [rising, full curve, poor fit]	
CC(C)(C)C(=O)NC(=S)NNC(=O)c1sc2ccccc2c1Cl	6.51 µM [rising, single point]	6.51 µM [falling, single point]

Compound	AC50 [1]	AC50 [2]
Cc1ccc(C)c(OCCCN2CCCC2)c1	23.1 µM [rising, single point]	
CN1C(=O)/C(=C/c2ccc(OCc3cccc(F)c3)cc2)NC1=S	15.8 µM [rising, partial curve, poor fit]	
COc1cc(O)sc1C=Nc1ccc(Cl)cc1		11.2 µM [falling, single point]
Cc1cc(C)cc(N2CC(O)=C(c3nc4ccccc4c(=O)[nH]3)C2=N)c1	12.6 µM [rising, partial curve]	11.2 µM [falling, partial curve]
Cc1nn(-c2ccccc2)c2nc(C(F)F)cc(C(F)F)c12	25.9 µM [rising, single point]	
CC(=O)Cn1nnc2sc3c(c2c1=O)CCC(C(C)(C)C)C3 (configuration not stated)	11.2 µM [rising, single point]	
CCOC(=O)c1c(C)[nH]c(C(=O)OCC(=O)c2ccc(OC)cc2OC)c1C	25.9 µM [rising, partial curve, poor fit]	
Cc1ccc(OCC(=O)Nc2cccc(S(=O)(=O)NC3=NCCCCC3)c2)cc1C	17.8 µM [falling, partial curve, poor fit]	
CC(C)(C)c1ccc(C(=O)NCCOc2ccccc2)cc1	11.2 µM [rising, partial curve, poor fit]	
CCN(CC)C(=S)SCC(=O)Nc1nc(-c2ccccc2)c(-c2ccccc2)o1	4.61 µM [falling, partial curve, poor fit]	
COc1cc(OC)cc(C2=NC3(CCC(C)CC3)NC2=S)c1 (configuration not stated)		14.1 µM [rising, partial curve, poor fit]
COc1ccc2c(CC(=O)OCC(=O)Nc3ccc(C)cc3)coc2c1	5.17 µM [rising, single point]	
CCC(=O)Nc1ccc(-c2nnc(SCc3ccc(C(=O)Nc4nccs4)cc3)n2CC)cc1	0.501 µM [falling, full curve, poor fit]	
Cc1ccc(NC2CC(=O)N(c3ccc(N4CCCCC4)cc3)C2=O)cc1 (configuration not stated)	25.9 µM [falling, partial curve, poor fit]	
Cc1oc2cc3c(C(=O)N4CCCCC4)c(C)oc3cc2c1C(=O)N1CCCCC1	11.2 µM [falling, partial curve]	
COc1ccc(NC(=O)c2nc[nH]c2C(=O)N[C@@H](CC(C)C)C(=O)OC(C)(C)C)cc1	20 µM [rising, single point]	
O=C(NN=C1CCN(Cc2ccccc2)CC1)c1ccccc1	9.2 µM [falling, partial curve]	
CC(C)(C)c1cc(=O)n2c(nc3ccccc32)[nH]1	11.2 µM [falling, single point]	
O=C(Nc1ccccc1)C1=C[C@H](c2ccccc2)C[C@H](OCc2ccc(CO)cc2)O1	25.1 µM [falling, single point]	
COc1ccc(Cn2ccnc2)cc1[N+](=O)[O-]	29.1 µM [rising, single point]	
COc1ccc(CCNC(=O)CSc2nnc(-c3ccc(F)cc3)o2)cc1OC	8.91 µM [rising, partial curve, poor fit]	

Compound	AC50 [1]	AC50 [2]
COc1ccc(C(=O)O/N=C(\N)c2ccccc2)cc1OC	3.98 µM [falling, full curve, poor fit]	
O=C(NCCCN1CCOCC1)c1ccc2c(c1)N(Cc1ccc(Cl)cc1)C(=O)c1ccccc1S2=O (configuration not stated)	5.01 µM [falling, partial curve]	
S=C(NCCc1ccccc1)N/N=C/c1c(Cl)cccc1Cl	20.6 µM [rising, single point]	
N#CCCn1cc(C=C(C#N)C#N)c(-c2ccc(Cl)cc2)n1	15.8 µM [falling, single point]	
CCN(CC1COc2ccccc2O1)C(=O)c1ccc(Cl)c(S(=O)(=O)N2CC(C)OC(C)C2)c1 (configuration not stated)	25.9 µM [falling, partial curve, poor fit]	
O=C(OCN1C(=O)c2ccccc2C1=O)c1cccc(S(=O)(=O)N2CCOCC2)c1	1.26 µM [rising, partial curve, poor fit]	
COCCN1C(=O)c2ccccc2C(C(=O)Nc2ccc3c(c2)OCCO3)C1c1ccc(F)cc1 (configuration not stated)	0.631 µM [rising, full curve]	
COc1ccc2c(c1)[C@H]1[C@H](CO2)[C@H](c2ccccc2)[C@]2(C)C(=O)Nc3ccc(F)cc3C(=O)N12	6.51 µM [falling, partial curve]	
CCOC(=O)C1=NN(c2ccccc2)C(=O)/C1=C\c1ccc(N(C)C)cc1	32.6 µM [falling, single point]	
NS(=O)(=O)c1ccc(NC(=O)c2ccc3c(c2)OCO3)cc1	5.01 µM [falling, full curve, poor fit]	
CCN(CCCNC(=O)CNC(=O)Cn1cnc2ccccc2c1=O)c1ccccc1	6.51 µM [rising, single point]	
O=C(Nc1nc2ccc(Cl)cc2s1)[C@@H]1CCCN1C(=O)c1cccs1	20.6 µM [falling, single point]	16.4 µM [rising, partial curve, poor fit]
O=C(NCC1CCCO1)c1cc(-c2ccccc2F)no1 (configuration not stated)	11.2 µM [falling, partial curve]	
CCOC(=O)CSc1c(-c2cccs2)[nH]c2ccccc12	29.1 µM [falling, single point]	
CCC1CCCCN1C(=O)COC(=O)c1cc2ccccc2cc1O (configuration not stated)	35.5 µM [falling, single point]	
CC(C)C[C@H](NC(=O)c1nc[nH]c1C(=O)NCc1ccc(CNC(=O)OC(C)(C)C)cc1)C(=O)OC(C)(C)C	2 µM [rising, full curve, poor fit]	
COc1cc(OC)cc(-c2cc3ccc(F)cc3cn2)c1	23.1 µM [falling, single point]	
Cc1cc2c3nonc3ccc2n1-c1ccccc1	6.31 µM [rising, partial curve, poor fit]	
COc1ccc(OC)c(NC(=O)CSC2=C(C#N)C(c3ccco3)C3=C(CCCC3=O)N2)c1 (configuration not stated)	14.1 µM [falling, partial curve]	

Gathered by group, the entries above with a nitro group on carbon
Compound	AC50 [1]	AC50 [2]
CN(C)c1ccc(S(=O)(=O)NCC(=O)NCCOc2ccccc2F)cc1[N+](=O)[O-]	4.11 µM [rising, partial curve, poor fit]	
COc1ccc(-c2cnnn2-c2ccc([N+](=O)[O-])cc2)cc1	3.98 µM [rising, full curve]	
CC(Cc1ccccc1)NC(=O)/C=C/c1ccc([N+](=O)[O-])cc1 (configuration not stated)	7.31 µM [rising, full curve, poor fit]	
COc1ccc(Cn2ccnc2)cc1[N+](=O)[O-]	29.1 µM [rising, single point]	

From PubChem BioAssay AID493014 (National Center for Advancing Translational Sciences (NCATS), 2011)
